Laboratory results as given in EP1119538B1, “DERIVATIVES OF PHENANTRENE FOR MEDICINAL USE AND A PROCESS FOR THEIR PREPARATION” (Ammar, Khodor, priority 1998, dated 2000).
At least one compound was matched to its structure with a doubt left.

Legend:
[1] = system: intestinal adenocarcinoma cells (lineages CACO-2 and HT-29); assay: Activity and differentiation (domes) in intestinal adenocarcinoma cell lineages; assay type: cell-based
[2] = system: RAR; conditions: as is known; cited from earlier work

Compound: CC1=C(/C=C/C(C)=C/C=C/C(C)=C/C(=O)O)C(C)(C)CCC1 [retinoic acid, reference compound]
- effect compared with butyrate and retinoic acid [1]: lesser and retarded effect
- receptor bonding, RAR [2]: mainly bond with RAR receptors
